In PubChem BioAssay AID1508600 (Functional Genomics Laboratory (NCATS/FGL), 2020) one finds z-score data, which are given here for 29 sequences.

The whole screen tested about 53,000 sequences, of which about 3,700 (7%) were called active.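 The calls were made as follows: active = gene knockdowns whose robust z-score for IL-1 alpha signal is at least 2 or at most -2, so actives lie on both sides; inactive = the rest.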 This is one part of the list.

This assay can be described thus: Components of the Cytosolic LPS Sensing Pathway: Gene Identification via Genome-wide siRNA Screen.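 Also: robust z of the log signal after scaling to non-targeting control siRNA wells of the plate.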 As to conditions: RAW264.7 macrophages, IL-1a HTRF, actives lie on both sides, screened at 100 nM (by protocol), cells primed 5 h with Pam3CSK4 first. An outline of the steps: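 Three distinct siRNAs per gene were tested singly at 100 nM in RAW264.7 macrophages. Following Pam3CSK4 priming and 24 hour LipidA transfection, IL-1a secretion was read by HTRF.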
Take CCUGGUGUUUGUCUGUACUTT against Cxcr6: the z-score is inactive: 0.896.

Turning to GGAAUUGGUCUAUAUGCGUTT against Il2ra, the z-score was inactive: -1.02.

As for GGCAUUCACUAACCAGUUATT against Nfyb, the z-score is inactive: 0.838.

Take “GGCAAAGCACCUUUAUCUGTT against G430095P16Rik”: the z-score was inactive: -0.664.

For GGUAUACGCUCUCGUAUUGTT against Rbbp9, the z-score was inactive: -0.737.

Turning to GCCCAGAAAUAUAAUCAAATT against Bub1, the z-score was active: 2.17.

As to GGGACAAUGAUGUUUUUGUTT against Vmac, the z-score is inactive: -1.02.

In the case of GGUUACCAUGUGAAGCAGGTT against Tnfrsf14, the z-score was inactive: -0.461.

GGUUCUCCAAACUCUGCCATT against Arhgap1: the z-score is active: 2.29.

As for GCAAAACAUUUCCUGUCUGTT against Zfp316, the z-score was inactive: -0.555.

As to CCAAUGCCUGUUUAAUAAATT against Prmt8, the z-score is inactive: 0.619.

Take GGCUGAAAGGUCAGAUUCCTT against Vbp1: the z-score is inactive: 0.364.

For GGAAAACCUUCAGUCUUUGTT against Slc29a2, the z-score was inactive: 1.46.

For the sequence GGAAGAAGACAGCAUGAAGTT against Mpp4, the z-score is inactive: -0.387.

Consider GGAAGUAGCCCAGAAGUGUTT against Rad51d, for which the z-score was inactive: -0.337.

As to UUGUCCUGGUCUCCUAUGCTT against Olfr141, the z-score is inactive: 1.12.

Regarding GGACUCAAACGACACAUGCTT against Eci2, the z-score is active: 2.42.

For GCAAGGAAGGUUUUCAAGUTT against Gsta2, the z-score was inactive: 0.146.

GCUGGUGGCAAUCAGAAAATT against Nppc: the z-score is inactive: 0.121.

As to GCCAAUGAAAGAGACGUAGTT against Fam81a, the z-score was inactive: -0.421.

For the sequence GGAGCUAGAGACAUUGUGCTT against Jade2, the z-score is inactive: -1.63.

As to GCGAGUCUAGAUGUCUAGCTT against Snx21, the z-score was inactive: -0.323.

Turning to GCUAUUUAUCACCAAGACATT against Plpp6, the z-score was inactive: -1.64.

GGUAGACUAUGCUAAAUUATT against Pabpc5: the z-score was inactive: 0.659.

Regarding GCCUAUCGUGGAGAUUCUGTT against Cab39l, the z-score was inactive: 0.0783.

On to GGCAACUAUAAGUACAUAGTT against Gsta3, for which the z-score is active: 3.87.

As to GGCCAUUUCGUACCUUUGUTT against Plxna3, the z-score was inactive: -0.626.

On to “CCCUAGGAGUACAUCAAAUTT against 1700001O22Rik”, for which the z-score is inactive: 1.15.

Turning to GCCAUUUUAUUGAAGCAAGTT against Sema3a, the z-score was inactive: 0.0231.
